This passage reports z-score results from PubChem BioAssay AID1347423 (Functional Genomics Laboratory (NCATS/FGL), 2020).

Hit rate of the full screen: of about 52,000 sequences, about 210 (0.4%) were called active.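 Rule for the calls: active = gene whose silencing raises cell survival under the drug, median off-target-corrected z-score across its silencing RNAs 2 or more; inactive = the rest.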 This is one part of the list.

The nature of this test: Resistance to Poly (ADP-Ribose) Polymerase inhibitor: Gene Identification via Genome-wide siRNA Screen. The settings on record: mouse BRCA2 R2336H ES cells, olaparib, CellTiter-Glo viability; active compounds read high. A digest of the protocol: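 Genome-wide siRNA screen (3 siRNAs/gene, 20 nM) in mouse ES cells carrying hypomorphic BRCA2 R2336H; olaparib 500 nM added 48 h post-transfection, CellTiter-Glo viability 72 h later. Normalized to plate-median negative control; MAD z-scores, gene median, seed-adjusted.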
In general terms: Cellular ATP, detected with luciferase, serves as a proxy for viable cell number.
In the case of GCCUUUAUACUAGCAGCCATT against Olfr827, the z-score is inactive: 0.361. Regarding GCCAGCCAUUGUACCAUGATT against Ttc15, the z-score is inactive: -0.476.

Take GGUCCAGAAGAAAUAAACATT against Kcnn1: the z-score is inactive: 0.222. Take CCACUAAUCGAGUUGGUGCTT against Pigf: the z-score was inactive: 0.712.

On to GGCUUUAAGAACUGGGCCCTT against Mgl1, for which the z-score is inactive: 0.22. For the sequence GGACUUUGAAAAAGAUGCATT against Fkbp7, the z-score was inactive: 0.208. To “GCGGUAUGAUCUAGUAGUGTT against 4930488P06Rik” belongs inactive: -1.98. To “GGCCAAAUGGACAAUCCAUTT against D330014H01Rik” belongs inactive: 0.667. To GACCAACCCUCACUAAGCUTT against Tcstv3 belongs inactive: -2.63; to GGUUUUGUAGGAGUCUCUCTT against V1ra9, inactive: 0.161. As for GGCAGCUGCUGACUUGAUGTT against Gng2, the z-score was inactive: -0.376. To CCCUUGGUUAUGGAGAAAGTT against Mcoln2 belongs inactive: -0.000713; to GCAGCAUCGCUAUGUCCUGTT against LOC541307, inactive: 0.152; to GGCUGGUACUCCAUUUUAGTT against Neil2, inactive: 0.791. Next, CCGGCAGACCUGUGACAUUTT against Rgs14: inactive: 1.16. To GUGAGACCAAGUUACAGGATT against Olfr1504 belongs inactive: 0.548; to GGCUUUAGCUAGUGCUAGGTT against Marveld1, inactive: -0.951. For the sequence CCCAAAGCUAUCAUAUCAATT against Laf4l, the z-score is inactive: 0.688. Next, GGCCCAUAAUUAAAUGUUUTT against Stac2: inactive: 0.15; GCAACCUGCAGGCAGUAACTT against Nolc1: inactive: 0.264; GGAAGAUGACCAAGAAGCUTT against Ddx42: inactive: -0.838. Regarding GGGUAGGAUUGAAAAGUUUTT against Trh, the z-score is inactive: -0.716. To “GGAAGCAAGUAUCCCGAAUTT against A930034L06Rik” belongs inactive: 1.74; to CCCUUGCUUGUCGGAAUCUTT against Chchd7, inactive: -0.137; to GGUGAUCCCAUUGUUUAUUTT against Gm784, inactive: 1.66.

Turning to GGCAUAUCAUUUGUAGGAUTT against Olfr73, the z-score is inactive: 0.00778. CUUUGAGCUUGGAAGUAAATT against bM64F17.1: the z-score is inactive: 0.0365. For the sequence “GCCCUUGAACGGAGAAUAGTT against 6720456B07Rik”, the z-score is inactive: -1.56. To GGAAGACAGUAGGAAGAAATT against Eif2s2 belongs inactive: -1.28. Next, CUACAGUGGCAAUAAUAUUTT against Rpl30: inactive: -2.78; “GGUCAUCCAGCUAUCUGAUTT against 4930572I07Rik”: inactive: 0.811. In the case of GGCUUGAUUGCAUCUUUAUTT against Ebpl, the z-score was inactive: 2.44. For GGUCUUAAUUCUGAAGGACTT against Chn1, the z-score was inactive: -0.304.

With GCAACUACCCUCUAAAGUCTT against Man1b1, the z-score was inactive: 0.232. Next, CCUGAUCCCGGUGUAUCAUTT against Mrpl38: inactive: 2.02. Consider GGCCGUUGUUGUAAAUAAATT against Rpo1-1, for which the z-score is inactive: -0.492. Regarding GGAUUCUGUGCUUUCCUGGTT against Pomt2, the z-score was inactive: 0.579.

“GGACUUGAGAAAAGAUUAUTT against 1300007L22Rik”: the z-score is inactive: 0.362. Next, “GCACUCAGAACAACUAAAATT against 9030617O03Rik”: inactive: 0.981. For the sequence CGCGGAGUUUCGAAGUGUCTT against Drd4, the z-score is inactive: 0.109.

In the case of GGUUUUUACAUCAUCUUGATT against Epb7.2, the z-score is inactive: 2.52. Next, “CCUUGAAUCGGCCCUGAAATT against 1110020C03Rik”: inactive: 0.801; GGAUGAACCACCACAAUUGTT against Olfr1233: inactive: -2.5. For GGAUAAGGCCAUCAAGAAGTT against Rps26, the z-score was inactive: -3.23.

With GGCACUUGCUCAUUCAUUCTT against AU021107, the z-score was inactive: -0.235. For GGGAGAAGAUAUGUUUUUATT against Sc5d, the z-score is inactive: -0.619. GCUAAGAAUAGGAGUUAGATT against Esrrbl1: the z-score is inactive: -0.29. For the sequence “GGAGAAGCUAAGUAACUUCTT against 2410018M14Rik”, the z-score was inactive: -0.456. Turning to GGAACAGAGACGAUACUCUTT against Fmr1nb, the z-score was inactive: -0.154. In the case of GGUCUCCUAUAGCACACAGTT against Itgb4, the z-score is inactive: -1.49. As for GGAGAAAAAAUUCUUAUCCTT against Hrmt1l1, the z-score is inactive: 0.53. For the sequence GGUCACCAAACAGCACGUGTT against Ctag3, the z-score is inactive: 0.92.

For GGAGCUCUCGAAGGAUUGUTT against Eda2r, the z-score is inactive: -1.73. As for GGACAAGUACGGAAAGCCCTT against Hdgfrp2, the z-score is inactive: 0.0224. For the sequence GGACAUGAACCUCUUCAAATT against Fads2, the z-score was inactive: 0.824. Regarding GCUAUGUGAAAGGAACCGATT against Prim2, the z-score was inactive: -0.757.

Regarding CCAACUUCAUAAGAUGUACTT against Commd3, the z-score is inactive: -0.17. CCUGUGUGUGAAUCUCGUUTT against C1qb: the z-score was inactive: -1.49. As for “GGAGAUAAAAAUCCAAGCATT against A030009B12Rik”, the z-score was inactive: 0.56.

Consider CGAGAGUGUGCCAAUAUUGTT against Tyrp1, for which the z-score is inactive: -1.37.

Turning to UACUCGUAUUCUUAAUUGCTT against Acsl1, the z-score was inactive: -0.319. Take GGUGGAACAAGAAGAGUCCTT against Zfp307: the z-score is inactive: -0.0578.

Consider “GGUAGAGAAGAACGGUACCTT against A430031N04”, for which the z-score was inactive: 0.512. As for GCACCAUGUUCAUCUUUACTT against Tas2r144, the z-score was inactive: -0.697.

As to GGAAGAAAUGAGAAGGAUATT against Igsf4b, the z-score was inactive: 0.635. To “GGAUGCUUUAACUUCAAACTT against A930001N09Rik” belongs inactive: 0.819. Next, “GGGCCCUUGACCUACCAUUTT against D830044D21Rik”: inactive: -0.706. For GCUCGGUUAAGAGCCCAUGTT against Pabpnl1, the z-score is inactive: 2.1. On to CCAUACUGGCAUACCUUGCTT against Mrgprb8, for which the z-score was inactive: -0.973. Next, GGUUGCCUCUUAAAUGUUGTT against Nyx: inactive: 1.07; GGACCUAUACAAGGGAGGUTT against Il1f10: inactive: 0.177; “GCCGAUCAGAUGUAAUUCUTT against 6030411F23Rik”: inactive: -1.21.

Take GGAGACAGGUGCUACAACUTT against Lin28: the z-score is inactive: -0.362. Turning to “CGGCACUAAACUUCGUGAGTT against 1700084P21Rik”, the z-score is inactive: -0.031. Consider “GGCUAUCCUGGAAAAAGAGTT against C330005L02Rik”, for which the z-score is inactive: -0.73.

On to GGUUCUGAUAGCUCAAGAGTT against Polr2b, for which the z-score is inactive: -2.41. As for CGACACAUAUGCUAGCUUGTT against Slc7a5, the z-score was inactive: 0.659. To CCAAUGUAAGACACGAUGUTT against Gpr151 belongs inactive: 1.5.

Consider GGCUAAAAGUAGUGAAUGATT against Ccr2, for which the z-score is inactive: -0.373. As to GCAUUUCGACGCGGCUUUUTT against Snapc1, the z-score is inactive: -2.45. With “GGAGUACAAAGAAAGGAACTT against 2610033H07Rik”, the z-score was inactive: -1.03. To GGUACUAUGAAGACUUAGATT against MGC37347 belongs inactive: -1.2; to “GCUCAGACCGUGAUUGUAUTT against 1620401E04Rik”, inactive: 0.961; to “GGUACCUUAUGUUUACAAUTT against A430010J10Rik”, inactive: -0.25. To GGAACUAAAUCUUCCAUCCTT against Chit1 belongs inactive: -0.42; to GGUGCCUUCUGUAAACGAGTT against Foxc2, inactive: 1.1. To “GGAGAAAAACAUCUAAGUGTT against 1810030N24Rik” belongs inactive: 1.14; to “CCCUUCUAUUUGAACAUAUTT against A530032D15Rik”, inactive: -1.99.

GGUAAAGGUGUAUUCGGGUTT against Ifngr1: the z-score is inactive: 2.76. Regarding GGCAUCCAUGAAAAACUCUTT against Aqp9, the z-score is inactive: -0.504.

On to GCUGCUGAUAACAUCCGACTT against Golga5, for which the z-score is inactive: 0.845. Next, “GGAUAUCACAUAGCAUCGGTT against 1700025G04Rik”: inactive: -0.0114. To GGUGAGCGUGUAGAGAUGCTT against Fbxo45 belongs inactive: 0.147.

On to GGAGUAGCAGAGCUUCUGGTT against S100a8, for which the z-score is inactive: 1.36. Next, “GGCCUUGCGUCUCAACCUUTT against 1810029B16Rik”: inactive: -1.86; “GCCAAUGGGUUGGUAAGAUTT against C030019I05Rik”: inactive: -1.58; CCAGCUCUGGUUUAUUGAATT against Neurog2: inactive: 0.341. To GGAAGAAAAAUAUGCUUUCTT against Pls3 belongs inactive: -0.75; to GGCUUUGCUCCUGAUAAACTT against Vnn3, inactive: 0.135; to GGAAACCUGGCAUAACUUUTT against Pax9, inactive: 1.09. To GGUACCAGGGAGUGACAUUTT against Itgae belongs inactive: -1.47; to GGCCAUCGAGGUGAUGUACTT against Tpst2, inactive: -2.43; to CCAACACCCAAUAAUAGCGTT against 6.33E+19, inactive: -0.777.
